Measured values from patent US7410806B2, “Compound for inhibiting the influx of polymorphonuclear leukocytes (PMNs) in a tissue, its selection, pharmaceutical compositions and use” (Fornix Biosciences N.V., priority 1999, dated 2008).
Like-named read-outs stand apart in the source and are kept apart here. At least one compound was matched to its structure with a doubt left. Positions of bridges follow the written chain, without caps; N, C: chain ends. Residues, ends and D or L forms follow the SMILES beside them. Chains are numbered I, II in the order given.

What was measured:
[1] = tested on: inflammatory cells in the bronchial-alveolar liquid; format: in vivo, C57B1/6J mice; details: for Number PMNs in bronchial-alveolar liquid / Total number infl. cells in bronchial-alveolar liquid: n=3
Method: (§1) On day 0, 2 and 7, two groups C75Bl/6J mice received 30 minutes' treatment with an aerosol (in an atomizing chamber as described in example 1) comprising (i) vehicle (phosphate-buffered physiological salt solution), (ii) N—AcPGP (0.4 mg/ml) or (iii) N—AcPGP (0.4 mg/ml) and 4-RTR (1 mg/ml). 30 minutes prior to the aerosol, the mice of group (i) and (ii) received intranasal vehicle and the mice of group (iii), 4RTR (1 mg/ml). […] (see Table III).

[2] = tested on: development of diarrhoea in the IBD-model; assay: Inflammatory Bowel Disease (IBD) model (DNFB sensibilization, DNS challenge), feces consistency tally; format: in vivo, Balbic mice; details: 4-RTR 5 μg/50 μl rectal before and 30 minutes after challenge; 24 h after challenge; n=6; FIG. 2
[3] = tested on: alveolar dilatation (lung emphysema); assay: Lung emphysema induced by N-AcPGP: mean linear intercept (Lm); format: in vivo, C75Bl/6J mice; details: simultaneous treatment with 4-RTR; day 21; FIG. 1
Method: as §1
On day 21 the mice of the second group (which on day 0, 2, and 7 were treated in the same manner as the mice of the first group), were sacrificed by means of an overdose of anaesthetic (Nembutal) and the lungs were isolated and fixed by filling the lungs with Carnoy's fixative under a liquid pressure of 25 cm. The lungs were prepared for histological analysis. The mean linear intercept (Lm), indicative for alveolar dilatation, was calculated by placing a grid over the illustrations of 5 separate fields (300× magnification) per mouse lung. The total length of the lines was divided by the number of intercepts, resulting in the Lm, providing a measure for the average size of the bronchial volume of the lung.

[4] = tested on: PGP-induced PMN influx in the mouse lung; assay: PGP-induced PMN influx in the mouse lung (lung-wash cell counts); format: in vivo, Balb/c mice; details: for Eos in lung-wash liquid / Monos in lung-wash liquid / Neutros in lung-wash liquid / Total cells in lung-wash liquid: 4RTR 50 μl of 1 mg/ml 1 h before and 1 h after start, ± SEM
Method: Solutions were prepared of N—Ac-PGP (0.36 mg/ml; 10^−3 M) and N-methyl-PGP (0.32 mg/ml; 10^−3 M) in phosphate-buffered physiological salt (PBS). In an atomizing chamber, 6-8 weeks old Balb/c mice (groups of 4 mice) were subjected for 30 minutes to either N-acetyl-PGP or N-methyl-PGP. Control mice only received PBS. One hour prior to subjection in the atomizing chamber and one hour after the start of subjection each mouse received 50 μl of 1 mg/ml 4RTR. The treatment is outlined in the Table I below.
5 Hours after the onset of subjection the mice were sacrificed by administering an overdose of Nembutal. After the application of a tracheal canula the lungs were washed with 4 ml PBS. The lung-wash liquid was centrifuged (5 min.; 4° C.; 580 g) and the cell pellet was taken up in 150 μl PBS. The cells were counted under the microscope. To distinguish between neutrophilic and eosinophilic granulocytes and mononuclear cells (haematoxylin/eosin dye, H/E dye: Diff-Quick, Merz & Dade, A. G. Dübingen, Switzerland), the cytospin technique was applied (Buckley, T. L. and Nijkamp, F. P., “Airways hyperreactivity and cellular accumulation in a delayed-type hypersensitivity reaction in the mouse: modulation by capsaicin-sensitive nerves”. Am. J. Respir. Crit. Care Med. 149: 400-407 (1994)).

[5] = 4RTR + NacPGP (4RTR 1 mg/ml, N-AcPGP 0.4 mg/ml), day 8
[6] = substance alone, aerosol on day 0, 2 and 7, 24 h after final treatment (day 8)

Q: Which results are given for C[C@H](NC(=O)[C@H](CCCCNC(=O)[C@H](CCCCNC(=O)CNC(=O)CNC(=O)[C@H](CCCNC(=N)N)NC(=O)[C@@H](NC(=O)[C@@H](N)CCCNC(=N)N)[C@@H](C)O)NC(=O)CNC(=O)CNC(=O)[C@H](CCCNC(=N)N)NC(=O)[C@@H](NC(=O)[C@@H](N)CCCNC(=N)N)[C@@H](C)O)NC(=O)[C@H](CCCCNC(=O)CNC(=O)CNC(=O)[C@H](CCCNC(=N)N)NC(=O)[C@@H](NC(=O)[C@@H](N)CCCNC(=N)N)[C@@H](C)O)NC(=O)CNC(=O)CNC(=O)[C@H](CCCNC(=N)N)NC(=O)[C@@H](NC(=O)[C@@H](N)CCCNC(=N)N)[C@@H](C)O)C(N)=O [4RTR, ((H2N-Arg-Thr-Arg-Gly-Gly)2-Lys)2-Lys-Ala-CONH2)] (I: H-RTRGGKKA-NH2 / II: H-RTRGGK / III: H-RTRGG / IV: H-RTRGG; amide I:6-IV:C, I:7-II:C, II:6-III:C)?
A: Inhibition of the increase of the number of cells caused by FMLP ([1]; 4RTR + FMLP): does not significantly inhibit; Number PMNs in bronchial-alveolar liquid ([1]; 4RTR + FMLP, day 8): 6.8 ± 1 ×10^5; Total number infl. cells in bronchial-alveolar liquid ([1]; 4RTR + FMLP, day 8): 58 ± 12 ×10^5; Number PMNs in bronchial-alveolar liquid [1, 5]: 1.2 ± 0.6 ×10^5; Total number infl. cells in bronchial-alveolar liquid [1, 5]: 29 ± 1 ×10^5; Number PMNs in bronchial-alveolar liquid [1, 6]: 0.1 ± 0.1 ×10^5; Total number infl. cells in bronchial-alveolar liquid [1, 6]: 36 ± 8 ×10^5; Development of diarrhoea (feces consistency tally 0-2) [2]: completely inhibits; Effect on N-AcPGP-induced increase of Lm [3]: prevented; Eos in lung-wash liquid ([4]; N-AcPGP atomization): 0.2 ± 0.2 ×10^4 cells/ml; Monos in lung-wash liquid ([4]; N-AcPGP atomization): 24.7 ± 3.2 ×10^4 cells/ml; Neutros in lung-wash liquid ([4]; N-AcPGP atomization): 1.3 ± 0.4 ×10^4 cells/ml; Total cells in lung-wash liquid ([4]; N-AcPGP atomization): 26.3 ± 3.3 ×10^4 cells/ml; Eos in lung-wash liquid ([4]; N-methylPGP atomization): 0.0 ± 0.0 ×10^4 cells/ml; Monos in lung-wash liquid ([4]; N-methylPGP atomization): 25.9 ± 3.1 ×10^4 cells/ml; Neutros in lung-wash liquid ([4]; N-methylPGP atomization): 0.9 ± 0.3 ×10^4 cells/ml; Total cells in lung-wash liquid ([4]; N-methylPGP atomization): 25.9 ± 3.1 ×10^4 cells/ml; Eos in lung-wash liquid ([4]; PBS atomization): 0.0 ± 0.0 ×10^4 cells/ml; Monos in lung-wash liquid ([4]; PBS atomization): 32.1 ± 1.9 ×10^4 cells/ml; Neutros in lung-wash liquid ([4]; PBS atomization): 0.5 ± 0.4 ×10^4 cells/ml; Total cells in lung-wash liquid ([4]; PBS atomization): 32.6 ± 1.7 ×10^4 cells/ml; Inhibition of the influx of neutrophilic granulocytes ([4]; pretreatment with 4RTR, N-AcPGP or N-methyl-PGP atomization): substantially total inhibition
